No constants are given. Whether binding was seen depends on the method and setting. Binding seen in cells or lysates may run through a third protein. Binding calls can cover weak binding; strength is not graded here.
Biological target: Dcp2 (mouse)
Experiment: co-immunoprecipitation of Act1 from MEFs, IL17 0, 15, 30, 60, 180 min, with DMSO or the inhibitor MRT67307, Western blot

- binding: binds
B1: Act1 (MEFs, immunoprecipitated with anti-Act1) (protein, mouse (MEFs), UniProt Q8N7N6 1-555, looked up)
chain: MNRSIPVEVDESEPFPSQLLKPIPEYSPEEELEPPAPNTRNMAPSSLSVLQCPPLKLANHQPVSQQVTCLRAKVLEEGEASFFRRHPELGKDISSCSSGASEPESELGALPPEHRFTLTEKRNRWLGSQLSAASPDTGHESDKSDPSLPNALADSFSGGQEMMPRPRPRPGPHRHRAAPDVPTIDTGYDSQPQDVLGIRQLERPLPLTSSCYLQDLPGPLRSRELPPQFELERYPMNAQLLPPHPSPQAPWNCQYYCPGGPYHHQVPHGHGYPPAAAYQQVLQPALPGQVLPGARARGPRPVQKVILNDSSPQDQEERPAQRDFSFPRLPRDQLYRPPSNGVEAPEESLDLPAELRPHGPQAPSLAAVPRPPSNPLARGTLRTSNLPEELRKVFITYSMDTAMEVVKFVNFLLVNGFQTAIDIFEDRIRGIDIIKWMERYLRDKTVMIIVAISPKYKQDVEGAESQLDEDEHGLHTKYIHRMMQIEFISQGSMNFRFIPVLFPNAKKEHVPTWLQNTHVYSWPKNKKNILLRLLREEEYVAPPRGPLPTLQVVPL

Source: patent publication US20230009539A1
